Experimental data published in EP4818204A1 (Nanjing Leads Biolabs Co., Ltd., dated 2026).
These are yes or no findings as the source states them, for the method shown.

Sequences of proteins named here, by UniProt entry; tags and fusion partners are left off. A change or cut given only in a name is not applied to a line headed by its entry.
UniProt P03971: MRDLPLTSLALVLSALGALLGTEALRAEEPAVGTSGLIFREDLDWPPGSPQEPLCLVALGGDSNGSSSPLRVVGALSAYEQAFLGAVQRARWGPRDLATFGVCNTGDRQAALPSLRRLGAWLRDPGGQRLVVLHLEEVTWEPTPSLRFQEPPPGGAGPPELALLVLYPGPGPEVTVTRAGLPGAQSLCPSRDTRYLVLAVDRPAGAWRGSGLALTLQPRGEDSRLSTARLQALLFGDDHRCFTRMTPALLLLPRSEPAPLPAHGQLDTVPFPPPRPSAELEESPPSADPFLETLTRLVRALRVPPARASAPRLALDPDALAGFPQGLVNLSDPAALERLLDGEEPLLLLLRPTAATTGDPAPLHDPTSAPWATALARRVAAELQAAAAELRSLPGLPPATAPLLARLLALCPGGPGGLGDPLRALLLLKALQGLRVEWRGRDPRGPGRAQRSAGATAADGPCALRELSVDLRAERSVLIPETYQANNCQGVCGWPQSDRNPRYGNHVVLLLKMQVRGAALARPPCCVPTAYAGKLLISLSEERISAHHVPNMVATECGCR
UniProt O14793: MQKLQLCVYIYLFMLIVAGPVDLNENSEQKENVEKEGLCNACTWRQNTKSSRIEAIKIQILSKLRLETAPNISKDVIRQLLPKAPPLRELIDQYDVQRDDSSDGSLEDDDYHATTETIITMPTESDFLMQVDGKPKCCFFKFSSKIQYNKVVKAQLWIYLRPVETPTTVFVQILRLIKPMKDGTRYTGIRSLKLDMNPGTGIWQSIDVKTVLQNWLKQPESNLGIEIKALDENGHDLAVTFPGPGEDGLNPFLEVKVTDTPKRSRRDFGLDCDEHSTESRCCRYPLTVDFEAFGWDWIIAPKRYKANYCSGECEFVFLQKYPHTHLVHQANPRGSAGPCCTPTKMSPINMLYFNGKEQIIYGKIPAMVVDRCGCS

Experiments:
[1] = biological target: human AMH protein (human) (UniProt P03971); assay: ELISA, coated protein
[2] = biological target: human GDF8 protein (human) (UniProt O14793); assay: ELISA, coated protein

B1: Hu21H6D2 (antibody, human IgG1, kappa, V domains shown)
VH: QVQLVQSGAEVKKPGASVKVSCKASGYTFTGYIMNWVRQAPGQRLEWMGDIDPYYGDAKYNQKFKGKVTITVDKSASTAYMELSSLRSEDTAVYYCARRDYDHGSFAYWGQGTLVTVSS
VL: EIVLTQSPDFQSVTPKEKVTITCSASSSVNYMHWYQQKPDQSPKRLIYDTSKLASGVPSRFSGSGSGTDYTLTINSLEAEDAATYYCQQWSSNPPTFGQGTKLEIKR
notes: Humanized form of murine 21H6D2; human IgG1 constant region with L234A, L235A, G237A and kappa light chain constant region; also called hu21H6D2-IgG1-mut(L234A,L235A,G237A)
Question: How did the binding [1] turn out when B1 was run?
Answer: The binding was “no binding (tested: 4 µg/mL)”.

Question: What about the binding [2] of the same binder?
Answer: The binding was “no binding (tested: 4 µg/mL)”.
